Measured values reported in PubChem BioAssay AID1487 (National Center for Advancing Translational Sciences (NCATS), 2009).
This is one part of the list. Shown are side measurements of this screen, not its main read-out; they come without a call. Compounds called inactive in the main read-out are mostly missing here. The note in brackets gives the kind of curve behind each potency; many fits are weak.

Assay: qHTS Assay for Modulators of Lamin A Splicing
Conditions: HeLa LMNA splicing GFP/RFP minigene ratio, 48 h
Outline: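 S3 HeLa stable clones carrying a lamin A-EGFP splicing minigene plus DsRed2 were seeded at 600 cells/well in Opti-MEM with 2% FBS, pin-dosed and incubated 48 h at 37°C. Acumen cytometry (488 nm) gave the GFP/RFP total-intensity ratio.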

[1] = measured here: RFP viability control channel
[2] = measured here: GFP splicing reporter channel

Compound | AC50 [1] | AC50 [2]
CCN(CC)c1ccc(CNCCc2ccc(F)cc2)cc1 | 0.0224 µM [falling, full curve, poor fit] | –
CC(C)Nc1ccc(Nc2ccccc2)cc1 | – | 1.26 µM [falling, partial curve]
O=C(Cc1ccccc1)N1CCN(Cc2c[nH]c3ccccc23)CC1 | 35.5 µM [rising, partial curve, poor fit] | –
CCN1C[C@@]2(COC)[C@H]3[C@@H](OC)[C@H]4C1[C@@]3([C@H](OC)C[C@@H]2O)[C@H]1C[C@@]2(O)[C@@H](OC(=O)c3ccccc3)[C@@H]1[C@@]4(OC(C)=O)[C@H](O)[C@@H]2OC | 0.0631 µM [falling, single point] | –
O=C(/C=C/c1ccccc1)c1c(O)n(CCc2ccccc2)c(=O)[nH]c1=O | 3.98 µM [rising, full curve] | –
Cc1ccc(S(=O)(=O)N2CCCC(C(=O)N3CCC4(CC3)OCCO4)C2)cc1 (stereo unspecified) | 28.2 µM [rising, single point] | –
C=CCn1c(O)c(N=Nc2c(C)n(C)n(-c3ccccc3)c2=O)c(=O)[nH]c1=S | 20 µM [rising, partial curve] | 11.2 µM [rising, partial curve]
O=C(c1cc2c(s1)-c1ccccc1OC2)N1CCC2(CC1)OCCO2 | 12.6 µM [rising, partial curve, poor fit] | –
CCCC(C)C1(CC)C(=O)NC(=S)NC1=O (stereo unspecified) | 0.355 µM [rising, full curve] | 0.282 µM [rising, full curve]
O=C(OCc1cc(=O)n2nc(C3CC3)sc2n1)c1ccc(NC(=O)c2ccccc2Cl)cc1 | – | 2.82 µM [falling, full curve, poor fit]
CCOC(=O)c1cc(-c2ccccc2)n(CCCC(=O)Nc2ccc(C)c(C)c2)c1C | 2 µM [falling, partial curve, poor fit] | 15.8 µM [falling, partial curve]
Cc1cccc(NC(=O)CSc2ccc(-c3ccco3)nn2)c1 | 14.1 µM [rising, single point] | –
ClC1=C(Cl)C2(Cl)C3C(Cl)C=CC3C1(Cl)C2(Cl)Cl (stereo unspecified) | 25.1 µM [falling, single point] | 22.4 µM [falling, single point]
CC(=NCc1ccco1)c1c(O)n(C)c(=O)n(C)c1=O | 0.0562 µM [rising, full curve, poor fit] | –
NC(C(=O)O)C1CC(Cl)=NO1 (stereo unspecified) | 35.5 µM [rising, single point] | –
C[C@@H]1OC(OC2C(OC3CC[C@@]4(C)C5CC=C6C7CC(C)(C)CC[C@@]7(C(=O)O)CCC6(C)C5(C)CCC4[C@]3(C)CO)OCC(O)C2O)C(O)C(O)C1O (stereo partly specified) | 22.4 µM [falling, single point] | 25.1 µM [falling, single point]
